Assay results published in patent US20070243194A1.
These are yes or no findings as the source states them, for the method shown. Some entries that bind do so weakly or less than the wild type.

Chains of the proteins cited; added tags and fusions are not shown. Lines headed by an entry give the natural chain unless they say otherwise; changes in a name come on top.
UniProt P08069: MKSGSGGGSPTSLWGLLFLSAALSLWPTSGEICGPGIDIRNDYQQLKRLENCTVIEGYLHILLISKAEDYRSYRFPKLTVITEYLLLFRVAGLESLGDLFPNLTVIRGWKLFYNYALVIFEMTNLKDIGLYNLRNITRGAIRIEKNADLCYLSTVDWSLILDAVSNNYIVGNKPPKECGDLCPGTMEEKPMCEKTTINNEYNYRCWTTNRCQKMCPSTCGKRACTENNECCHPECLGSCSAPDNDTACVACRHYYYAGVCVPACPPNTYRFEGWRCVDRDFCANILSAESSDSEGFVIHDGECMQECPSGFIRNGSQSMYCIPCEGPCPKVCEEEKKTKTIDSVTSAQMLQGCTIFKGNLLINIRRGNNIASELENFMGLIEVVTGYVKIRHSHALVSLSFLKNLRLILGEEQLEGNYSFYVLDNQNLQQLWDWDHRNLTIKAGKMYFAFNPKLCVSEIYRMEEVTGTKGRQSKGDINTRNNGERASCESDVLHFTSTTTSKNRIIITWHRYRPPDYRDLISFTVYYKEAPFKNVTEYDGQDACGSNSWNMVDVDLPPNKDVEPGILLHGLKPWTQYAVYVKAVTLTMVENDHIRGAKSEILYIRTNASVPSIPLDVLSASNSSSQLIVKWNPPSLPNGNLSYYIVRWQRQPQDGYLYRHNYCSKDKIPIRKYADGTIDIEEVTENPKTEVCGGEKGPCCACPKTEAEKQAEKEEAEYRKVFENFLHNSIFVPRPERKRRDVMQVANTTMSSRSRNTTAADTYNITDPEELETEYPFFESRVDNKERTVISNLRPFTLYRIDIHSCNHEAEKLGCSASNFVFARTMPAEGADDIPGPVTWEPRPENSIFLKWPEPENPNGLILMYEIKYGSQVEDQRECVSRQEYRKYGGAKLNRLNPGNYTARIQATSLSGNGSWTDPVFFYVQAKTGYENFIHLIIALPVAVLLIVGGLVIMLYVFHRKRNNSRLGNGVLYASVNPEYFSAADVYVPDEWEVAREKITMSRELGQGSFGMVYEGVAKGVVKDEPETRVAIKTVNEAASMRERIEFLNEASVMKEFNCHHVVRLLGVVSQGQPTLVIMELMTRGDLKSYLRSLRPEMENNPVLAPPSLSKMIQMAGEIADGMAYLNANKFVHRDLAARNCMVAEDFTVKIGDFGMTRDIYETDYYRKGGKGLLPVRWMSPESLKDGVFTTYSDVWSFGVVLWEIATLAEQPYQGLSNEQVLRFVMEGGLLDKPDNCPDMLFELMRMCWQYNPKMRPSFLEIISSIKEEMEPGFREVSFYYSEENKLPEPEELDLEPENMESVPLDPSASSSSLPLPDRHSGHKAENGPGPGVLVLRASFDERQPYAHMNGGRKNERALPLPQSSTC

What was measured:
[1] = target: human IGF-1R(1-903)-Fc (human) (UniProt P08069); experiment: solid-phase RIA; blocks binding of 125I-IGF-2 to immobilised IGF-1R-Fc [9.b.]
[2] = target: human IGF-1R on cells (human) (UniProt P08069); experiment: flow cytometry on IGF-1R/3T3 transfectants with parental 3T3 cells as control [b]
[3] = target: human IGF-1R on cells (human) (UniProt P08069); experiment: flow cytometry, MCF-7 and IGF-1R/3T3 cells
[4] = target: human IGF-1R on cells (human) (UniProt P08069); experiment: flow cytometry on MCF-7 cells, anti-human IgG-RPE; x axis is the log of Ab conc. (nM) [a]
[5] = target: human IGF-1R(1-903)-Fc (human) (UniProt P08069); experiment: SPR, antibody immobilised
[6] = target: human IGF-1R(1-903)-Fc (human) (UniProt P08069); experiment: ELISA, IGF-1R.Fc coated
[7] = target: human IGF-1R(1-903)-Fc (human) (UniProt P08069); experiment: ELISA on plates coated with soluble IGF-1R-Fc, anti-human kappa-HRP [b]

binding [1]: binds | binding [2]: binds | binding [3]: binds | binding [4]: binds | binding [5]: binds | binding [6]: binds | binding [7]: binds
B1: M14-C03.G4.P.agly (antibody, human IgG4 S228P, kappa, V domains shown)
VH: EVQLLESGGGLVQPGGSLRLSCAASGFTFSKYMMSWVRQAPGKGLEWVSYISPSGGLTWYADSVKGRFTISRDNSKNTLYLQMNSLRAEDTAVYYCARDGARGYGMDVWGQGTTVTVSS
VL: DIQMTQSPATLSLSPGERATLSCRASQSVSSYLAWYQQKPGQAPRLLIYDASNRATGIPARFSGSGSGTDFTLTISSLEPEDFAVYYCQQRSNWPPEVTFGPGTKVDIKR
